Reference: publication PMC7819943, “Rice protein-binding microarrays: a tool to detect cis-acting elements near promoter regions in rice”
Some of the results follow.

The sequences below were run against T1, OsSMF1 (Oryza sativa, UniProt Q6ZLB0 1-436) (assay: protein-binding microarray (RPBM); PBS, 2% BSA, 51.3 ng/ul salmon testes DNA, 50 uM zinc acetate, 200 nM TF, 25 C, 1 h; high values mean tight binding). Conditions: protein: recombinant; tags: N-terminal polyhistidine and DsRed monomer fusion (pET32a); chain copies: 2; label: CyDye5-dUTP incorporated in the synthesized complementary strand; 3' TTTTT single-stranded linker to array surface; dsDNA, one strand shown.
T1 sequence: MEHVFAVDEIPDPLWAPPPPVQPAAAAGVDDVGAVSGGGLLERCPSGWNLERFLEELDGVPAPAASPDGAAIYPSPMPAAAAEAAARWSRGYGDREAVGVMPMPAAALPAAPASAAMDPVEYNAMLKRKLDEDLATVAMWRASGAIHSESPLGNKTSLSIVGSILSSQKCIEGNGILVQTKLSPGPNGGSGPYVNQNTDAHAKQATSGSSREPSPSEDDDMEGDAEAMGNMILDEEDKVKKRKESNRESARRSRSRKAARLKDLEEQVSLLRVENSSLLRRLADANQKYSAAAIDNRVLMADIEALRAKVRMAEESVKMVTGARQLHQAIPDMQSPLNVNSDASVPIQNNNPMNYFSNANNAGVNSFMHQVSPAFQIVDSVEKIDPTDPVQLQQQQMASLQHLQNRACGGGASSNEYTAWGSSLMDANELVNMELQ
Procedure, shortened: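 Binding signal is reported as fluorescence intensity per feature (arbitrary units) from an Axon 4000B scanner. Incubation used 200 nM of each Ni–NTA-purified, N-terminally polyhistidine- and DsRed-fused transcription factor from E. coli BL21-CodonPlus on a double-stranded custom Agilent array for 1 h at 25 °C, with 50 µM zinc acetate in the buffer, followed by washing.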

Sequence | binding signal
TGGGCCTGCGTAGACGCTGACTCCGCTTTGCTGGATTGTCCGGAGTCACCTAGTGCAG | 8910 fluorescence intensity (a.u.)
ACCTCGTCGCTGCGCCGCGCGGCCTCGACGTGGCCGCCACCGGAGTCACCTAGTGCAG | 3790 fluorescence intensity (a.u.)
GGGGATAATCTCTGAAGAAAGGCCGGGCAATGATTACCACCGGAGTCACCTAGTGCAG | 4490 fluorescence intensity (a.u.)
ATATTTCGCCCAAATTCTCCCACGTACTAGGGCCACCACCCGGAGTCACCTAGTGCAG | 3360 fluorescence intensity (a.u.)
ACATCTGGCGCGGCGGCCACGAGTACATCGGGACGTGGAACGGAGTCACCTAGTGCAG | 3170 fluorescence intensity (a.u.)
TATCCATCCATGCATTTGTCATCTGCCAACTCACCTACCTCGGAGTCACCTAGTGCAG | 8250 fluorescence intensity (a.u.)
TATCCTCTTTGCTGCTAATGGTGTCATTATCCCGTGTGTACGGAGTCACCTAGTGCAG | 3940 fluorescence intensity (a.u.)
GCCCTTTGTAGTTAATACAACGATGTGGGTTGCTTTTGCTCGGAGTCACCTAGTGCAG | 19400 fluorescence intensity (a.u.)
CAGCATCAGCTGCATCACTCCCCGCCTCTCCGCGATCGCACGGAGTCACCTAGTGCAG | 3280 fluorescence intensity (a.u.)
GGTGGTGACCGCGTCGTCGCGGAGCGGGAGGCGCGCGAGGCGGAGTCACCTAGTGCAG | 30200 fluorescence intensity (a.u.)
GCCCAAATTCAACCCGACGCCACGAGGCAACCTGACTCGGCGGAGTCACCTAGTGCAG | 6490 fluorescence intensity (a.u.)
TATAAATTAAACACAGCCACGTAACCCTAATTTCAGAAACCGGAGTCACCTAGTGCAG | 7400 fluorescence intensity (a.u.)
GAGGATAAAGTATGCACACGTGTGACATATGGCAAGACAACGGAGTCACCTAGTGCAG | 6410 fluorescence intensity (a.u.)
GCCCTTATGAATATTGGCGTGTCGCGACGCCCCACGACTCCGGAGTCACCTAGTGCAG | 3820 fluorescence intensity (a.u.)
GTTTGTCTGACCCAACTAAAGCCCTTGAGATATTACAAATCGGAGTCACCTAGTGCAG | 4480 fluorescence intensity (a.u.)
TTGATCATAGTTTTAGCTGATGTGGCTCCTACATGGTGACCGGAGTCACCTAGTGCAG | 6450 fluorescence intensity (a.u.)
GCCACCTCGGCGCATCCACGCAACCCACCCGTCGCGAGTCCGGAGTCACCTAGTGCAG | 3320 fluorescence intensity (a.u.)
TAACTTCTTGCAGAAATGCCTCGTCATCGGTGACGCCGTTCGGAGTCACCTAGTGCAG | 4870 fluorescence intensity (a.u.)
CGCCGCTCACCGGCGACGGGCGGCGCCGGATTTCGCCGTCCGGAGTCACCTAGTGCAG | 4860 fluorescence intensity (a.u.)
AGGACTGCCCTGACCCTGACACGCGCCAAGCTGTTCCTCCCGGAGTCACCTAGTGCAG | 3810 fluorescence intensity (a.u.)
TAGAAGTCTTGGTTCACGCACAGTACAGTACTTGTCAAAGCGGAGTCACCTAGTGCAG | 22200 fluorescence intensity (a.u.)
CGCTGTCGACCTCCCCACCTCCTCCTTCGCACGTTCTCGCCGGAGTCACCTAGTGCAG | 15600 fluorescence intensity (a.u.)
GTTCCATTGGTTTGTAATAATGAAGCCTGCCTAGTGCTTTCGGAGTCACCTAGTGCAG | 32100 fluorescence intensity (a.u.)

An excerpt from the list above, as a working copy:
Sequence | binding signal
GCCCTTATGAATATTGGCGTGTCGCGACGCCCCACGACTCCGGAGTCACCTAGTGCAG | 3820 fluorescence intensity (a.u.)
GTTTGTCTGACCCAACTAAAGCCCTTGAGATATTACAAATCGGAGTCACCTAGTGCAG | 4480 fluorescence intensity (a.u.)
TTGATCATAGTTTTAGCTGATGTGGCTCCTACATGGTGACCGGAGTCACCTAGTGCAG | 6450 fluorescence intensity (a.u.)
GCCACCTCGGCGCATCCACGCAACCCACCCGTCGCGAGTCCGGAGTCACCTAGTGCAG | 3320 fluorescence intensity (a.u.)
